# Results taken from paper PMC8590022.
# By UniProt entry, the sequences of proteins in these tests, tags left out.
# UniProt Q04206: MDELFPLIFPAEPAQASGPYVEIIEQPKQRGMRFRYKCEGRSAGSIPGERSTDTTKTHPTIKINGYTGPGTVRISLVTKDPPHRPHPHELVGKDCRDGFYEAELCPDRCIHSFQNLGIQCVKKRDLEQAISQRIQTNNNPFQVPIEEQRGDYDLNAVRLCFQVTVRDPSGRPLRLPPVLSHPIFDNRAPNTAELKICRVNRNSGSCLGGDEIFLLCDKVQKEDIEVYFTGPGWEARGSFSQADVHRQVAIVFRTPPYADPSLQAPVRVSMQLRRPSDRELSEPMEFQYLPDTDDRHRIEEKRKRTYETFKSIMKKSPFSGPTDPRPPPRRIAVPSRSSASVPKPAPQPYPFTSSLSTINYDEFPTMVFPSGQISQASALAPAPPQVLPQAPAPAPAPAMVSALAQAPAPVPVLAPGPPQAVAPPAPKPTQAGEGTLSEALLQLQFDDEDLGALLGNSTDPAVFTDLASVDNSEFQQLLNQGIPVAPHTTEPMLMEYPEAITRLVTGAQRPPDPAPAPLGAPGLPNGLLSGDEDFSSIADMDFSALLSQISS
# UniProt P05412: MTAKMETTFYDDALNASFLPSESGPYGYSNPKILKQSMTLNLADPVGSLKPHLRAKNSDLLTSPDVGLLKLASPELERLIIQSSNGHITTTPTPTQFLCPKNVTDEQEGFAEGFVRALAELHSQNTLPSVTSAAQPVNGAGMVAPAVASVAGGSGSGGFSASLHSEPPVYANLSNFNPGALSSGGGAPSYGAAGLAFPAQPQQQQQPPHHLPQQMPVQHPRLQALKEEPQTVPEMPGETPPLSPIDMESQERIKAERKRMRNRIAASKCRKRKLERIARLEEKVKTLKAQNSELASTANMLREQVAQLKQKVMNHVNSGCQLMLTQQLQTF
# UniProt Q13547: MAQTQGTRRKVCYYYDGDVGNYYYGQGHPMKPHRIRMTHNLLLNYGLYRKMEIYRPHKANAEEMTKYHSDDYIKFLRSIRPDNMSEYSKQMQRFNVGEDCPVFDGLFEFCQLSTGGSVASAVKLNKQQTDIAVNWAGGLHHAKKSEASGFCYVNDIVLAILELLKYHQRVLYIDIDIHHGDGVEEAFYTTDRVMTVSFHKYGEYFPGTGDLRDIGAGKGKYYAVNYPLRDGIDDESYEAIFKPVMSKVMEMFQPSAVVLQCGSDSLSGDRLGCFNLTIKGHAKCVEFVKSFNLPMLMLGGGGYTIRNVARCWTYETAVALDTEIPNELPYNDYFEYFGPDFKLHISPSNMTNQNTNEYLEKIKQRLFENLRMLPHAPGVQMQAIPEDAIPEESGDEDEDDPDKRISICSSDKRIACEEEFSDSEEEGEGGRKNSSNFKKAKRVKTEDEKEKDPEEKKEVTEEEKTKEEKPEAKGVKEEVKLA
# No constants are given. Whether binding was seen depends on the method and setting. For some of these results: Binding seen in cells or lysates may run through a third protein. Some binding calls cover weakened binding; strength is not graded here. For some of these results: Sequences can lack the tags named with a protein.
# B1: Flag-DACH1 (human Dachshund homolog 1) (protein, UniProt Q9UI36-2 1-706)
# chain: MAVPAALIPPTQLVPPQPPISTSASSSGTTTSTSSATSSPAPSIGPPASSGPTLFRPEPIASAAAAAATVTSTGGGGGGGGSGGGGGSSGNGGGGGGGGGGSNCNPNLAAASNGSGGGGGGISAGGGVASSTPINASTGSSSSSSSSSSSSSSSSSSSSSSSSCGPLPGKPVYSTPSPVENTPQNNECKMVDLRGAKVASFTVEGCELICLPQAFDLFLKHLVGGLHTVYTKLKRLEITPVVCNVEQVRILRGLGAIQPGVNRCKLISRKDFETLYNDCTNASSRPGRPPKRTQSVTSPENSHIMPHSVPGLMSPGIIPPTGLTAAAAAAAAATNAAIAEAMKVKKIKLEAMSNYHASNNQHGADSENGDMNSSVGLELPFMMMPHPLIPVSLPPASVTMAMSQMNHLSTIANMAAAAQVQSPPSRVETSVIKERVPDSPSPAPSLEEGRRPGSHPSSHRSSSVSSSPARTESSSDRIPVHQNGLSMNQMLMGLSPNVLPGPKEGDLAGHDMGHESKRMHIEKDETPLSTPTARDSLDKLSLTGHGQPLPPGFPSPFLFPDGLSSIETLLTNIQGLLKVAIDNARAQEKQVQLEKTELKMDFLRERELRETLEKQLAMEQKNRAIVQKRLKKEKKAKRKLQEALEFETKRREQAEQTLKQAASTDSLRVLNDSLTPEIEADRSGGRTDAERTIQDGRLYLKTTVMY
# B2: endogenous DACH1 (protein, UniProt Q9UI36-2 1-706)
# chain: B1 chain
# Tests used:
# GFP-p65 [1] = target: GFP-p65 (UniProt Q04206); assay: co-IP; HEK 293T cells transfected with tagged proteins; RIPA lysate, antibody (anti-GFP, anti-Myc or anti-Flag) 6 h at 4 °C, Protein A/G agarose 4 h at 4 °C, Western blot; for p65 and HDAC1 also with or without co-expressed Flag-DACH1
# GFP-c-Jun [2] = target: GFP-c-Jun (UniProt P05412); assay: as above
# GFP-p65 [3] = target: GFP-p65 (UniProt Q04206); assay: as above; remark: listed apart in the source
# [4] = target: Myc-HDAC1 (histone deacetylase 1) (UniProt Q13547); assay: as above
# GFP-c-Jun [5] = target: GFP-c-Jun (UniProt P05412); assay: ChIP-reChIP; HEK 293T cells transfected with Flag-DACH1 and GFP-c-Jun or GFP-p65, cross-linked with 1% formaldehyde; DNA-protein complexes immunoprecipitated with anti-GFP or anti-IgG, re-immunoprecipitated with anti-Flag; region 3 (AP-1 site) or region 1 (NF-κB site) of the MMP9 promoter amplified by PCR
# GFP-p65 [6] = target: GFP-p65 (UniProt Q04206); assay: as above
# [7] = target: endogenous p65 (human (endogenous in ZR-75-30)) (UniProt Q04206); assay: co-IP; endogenous proteins of ZR-75-30 cells; immunoprecipitation with anti-p65 or anti-IgG antibody, Western blot with anti-DACH1 antibody
molecule,measurement,setting,value
Myc-HDAC1 (histone deacetylase 1) (from UniProt Q13547 1-482),binding,GFP-p65 [1],binds
B1,binding,GFP-c-Jun [2],binds
same,binding,GFP-p65 [3],binds
same,binding,[4],binds
same,binding,GFP-c-Jun [5],binds
same,binding,GFP-p65 [6],binds
B2,binding,[7],binds
